Source: PubChem BioAssay AID1259254 (NCATS, 2017)
Shown is one part, drawn at random, of about 59,000 deposited reagents. About 1,550 of them (2.6%) count as active. 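G2 share is only a proxy for re-replication; each gene was hit by three separate siRNAs, and active genes were retested.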 Reagents against one gene are numbered here. Not all columns of the deposit are shown. The record does not give: the amount of reagent.

Aim: 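Genome-wide screen for genes that prevent DNA re-replication in cancer cells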 (primary screen)
Cell system: human HCT116 colorectal cancer cells
Knock-down reagent: single siRNA against human genes
Duration: 3 days
Detection: 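Imaged Hoechst DNA stain sorts each cell into a cycle phase by DNA amount; per plate, G2 fraction set to 0% for non-targeting and 100% for GMNN siRNA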
Scale: G2 robust z-score and G2 cells, % of GMNN control: higher = more G2 cells, more excess DNA replication
Active means: 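Active siRNAs have a G2 robust z of 5 or more median absolute deviations over the median, which in these data means about 38% or higher of GMNN control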

Knock-down of PSORS1C2 (GeneID 170680) #1 came out at: G2 robust z-score -0.928; G2 cells, % of GMNN control -3.56; inactive.
Knock-down of PSORS1C2 (GeneID 170680) #2 came out at: G2 robust z-score 1.89; G2 cells, % of GMNN control 16.3; inactive.
Knock-down of PSORS1C2 (GeneID 170680) #3 gave: G2 robust z-score -0.246; G2 cells, % of GMNN control 1.24; inactive.
After knock-down of LOC728805 (retired record) (GeneID 728805) #1, the screen gave G2 robust z-score -0.958; G2 cells, % of GMNN control -3.77; inactive.
With knock-down of LOC728805 (retired record) (GeneID 728805) #2 the results were G2 robust z-score 0.0592; G2 cells, % of GMNN control 3.38; inactive.
LOC728805 (retired record) (GeneID 728805) #3 gave G2 robust z-score 0.382; G2 cells, % of GMNN control 5.65; inactive.

2 entries from above, set out differently:
{"gene knocked down": "PSORS1C2 (GeneID 170680)", "siRNA no.": 3, "G2 robust z-score": -0.246, "G2 cells, % of GMNN control": 1.24, "outcome": "inactive"}
{"gene knocked down": "LOC728805 (retired record) (GeneID 728805)", "siRNA no.": 1, "G2 robust z-score": -0.958, "G2 cells, % of GMNN control": -3.77, "outcome": "inactive"}

Next entries follow.
SIVA1 (GeneID 10572) #1 showed G2 robust z-score -0.983; G2 cells, % of GMNN control -3.95; inactive.
Knock-down of SIVA1 (GeneID 10572) #2 gave: G2 robust z-score 1.79; G2 cells, % of GMNN control 15.5; inactive.
With knock-down of SIVA1 (GeneID 10572) #3 the results were G2 robust z-score 0.599; G2 cells, % of GMNN control 7.18; inactive.
Knock-down of ITIH2 (GeneID 3698) #1 came out at: G2 robust z-score -0.55; G2 cells, % of GMNN control -0.905; inactive.
Silencing of ITIH2 (GeneID 3698) #2 gave: G2 robust z-score 0.222; G2 cells, % of GMNN control 4.53; inactive.
After knock-down of ITIH2 (GeneID 3698) #3 the results were G2 robust z-score 0.21; G2 cells, % of GMNN control 4.44; inactive.
